Assay results reported in PubChem BioAssay AID328 (DTP/NCI, 2004).
The list is a part of this screen's results and no random one: it is rich in T/C values a quarter to a half above the control, in often repeated tests (any T/C) and in doses without a T/C. Further doses and runs are listed elsewhere. T/C gives the treated animals as a percentage of the vehicle group. Some doses have a count of surviving animals in place of a T/C: the source files T/C as zero there, which appears to mark a toxic dose or a test without result, not a measured value. Some doses without a T/C left all or most animals alive at the check, yet need not have been tolerated: survival well below the control is almost never listed, so the zero probably covers shortened survival too. Counts of survivors are from the toxicity check (mostly the fifth day) where no day follows; animals may have died later. Schedule codes are those of the source, read here as Q, the interval in days (D) or hours (H), X, the number of doses. Some entries were tested several times; their values stand side by side, smallest first. Additions like (4×) give the number of equal values in this list. Where survival is the endpoint, this PubChem deposit counts one and a half times the control or more as active, and values a quarter to a half above the control carry no call in these data; other NCI protocols may use other cut-offs. Some T/C values carry the count of animals alive at the toxicity check (mostly the fifth day); without a count, all were alive then.

Tested on: BDF1 mice, P388 leukemia ip, median survival T/C
Experiment: NCI In Vivo Anticancer Drug Screen. Data for tumor model P388 Leukemia (intraperitoneal) in B6D2F1 (BDF1) mice
Settings: T/C endpoint: median survival time, higher T/C = longer survival
Method in brief: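 Compound-treated tumour-bearing mice were compared with vehicle-treated controls. Survival was recorded, and the value is the treated-group measurement divided by the control-group measurement (T/C).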

[1] = dose: 100.0 mg/kg/injection, schedule: Q01DX009 (ip), vehicle: Klucel (hydroxypropylcellulose) (HPC)
[2] = dose: 200.0 mg/kg/injection, schedule: Q01DX005 (ip), vehicle: Klucel (hydroxypropylcellulose) (HPC)

O=P1(N(CCCl)CCCl)NCCCO1 (stereo unspecified)
survivor count (dose: 100.0 mg/kg/injection, schedule: Q01DX005 (ip), vehicle: Klucel (hydroxypropylcellulose) (HPC)): 3 of 3 and 6 of 6
T/C [1]: 87, 88, 89, 90, 96, 97, 100, 105, 107, 110, 112, 112 [2 of 2 alive], 117, 119, 136, 139, 174, 178, 262 % of control
survivor count [1]: 3 of 3 and 6 of 6
T/C (dose: 100.0 mg/kg/injection, schedule: Q04DX002 (ip), vehicle: Klucel (hydroxypropylcellulose) (HPC), evaluated on day 30): 131, 170, 197, 205, 210, 220, 231, 237 (2×), 238, 247, 252, 256 (2×), 258 (2×), 262, 265, 269, 270, 272, 275 (2×), 279, 280, 283, 285, 288, 294, 306 (2×), 309, 322 % of control
T/C (dose: 100.0 mg/kg/injection, schedule: Q04DX002 (ip), vehicle: Klucel (hydroxypropylcellulose) (HPC), evaluated on day 35): 301 % of control
T/C (dose: 100.0 mg/kg/injection, schedule: Q04DX003 (ip), vehicle: Klucel (hydroxypropylcellulose) (HPC), evaluated on day 30): 86, 91 [5 of 6 alive], 106 (2×), 107, 108, 121, 122, 132, 134, 135, 136, 140, 151, 171 [2 of 3 alive], 192, 224, 227, 229 (2×), 243, 247, 253, 257, 260, 263, 266, 269, 270, 271, 272 (2×), 283 % of control
T/C (dose: 100.0 mg/kg/injection, schedule: Q04DX003 (ip), vehicle: Klucel (hydroxypropylcellulose) (HPC), evaluated on day 35): 218 and 312 % of control
survivor count (dose: 100.0 mg/kg/injection, schedule: Q04DX003 (ip), vehicle: Klucel (hydroxypropylcellulose) (HPC)): 3 of 3
T/C (dose: 100.0 mg/kg/injection, schedule: Q04DX003 (ip), vehicle: saline, evaluated on day 5): 116, 183, 206, 233, 266, 343, 351, 558 % of control
T/C (dose: 100.0 mg/kg/injection, schedule: Q04DX003 (ip), vehicle: saline, evaluated on day 9): 413 % of control
T/C (dose: 100.0 mg/kg/injection, schedule: Q04DX003 (ip), vehicle: saline, evaluated on day 11): 95 % of control
T/C (dose: 100.0 mg/kg/injection, schedule: Q04DX003 (ip), vehicle: saline, evaluated on day 30): 259 and 266 % of control
T/C (dose: 100.0 mg/kg/injection, schedule: Q04DX003 (ip), vehicle: saline, evaluated on day 60): 116, 183, 206, 233, 266, 343, 351 % of control
T/C (dose: 133.0 mg/kg/injection, schedule: Q01DX001 (ip), vehicle: saline, evaluated on day 5): 112, 117, 203, 212, 233, 250, 305, 306 % of control
T/C (dose: 133.0 mg/kg/injection, schedule: Q01DX001 (ip), vehicle: saline, evaluated on day 60): 112, 117, 203, 212, 233, 250, 305 (2×), 306, 316, 338, 352, 486, 530 % of control
T/C (dose: 150.0 mg/kg/injection, schedule: Q01DX001 (ip), vehicle: saline, evaluated on day 5): 310 % of control
T/C (dose: 150.0 mg/kg/injection, schedule: Q01DX001 (ip), vehicle: saline, evaluated on day 34): 263 % of control
T/C (dose: 150.0 mg/kg/injection, schedule: Q01DX001 (ip), vehicle: saline, evaluated on day 46): 356 % of control
T/C (dose: 150.0 mg/kg/injection, schedule: Q01DX001 (ip), vehicle: saline, evaluated on day 60): 295, 359, 433 % of control
T/C (dose: 160.0 mg/kg/injection, schedule: Q01DX005 (ip), vehicle: saline, evaluated on day 30): 91 % of control
T/C (dose: 160.0 mg/kg/injection, schedule: Q01DX005 (ip), vehicle: saline, evaluated on day 35): 156 and 343 % of control
survivor count (dose: 160.0 mg/kg/injection, schedule: Q01DX005 (ip), vehicle: saline): 5 of 6 (2×) and 6 of 6
T/C (dose: 160.0 mg/kg/injection, schedule: Q01DX009 (ip), vehicle: saline, evaluated on day 35): 91 [5 of 6 alive] and 100 % of control
T/C (dose: 160.0 mg/kg/injection, schedule: Q01DX009 (ip), vehicle: saline, evaluated on day 40): 89 % of control
survivor count (dose: 160.0 mg/kg/injection, schedule: Q01DX009 (ip), vehicle: saline): 5 of 6 and 6 of 6
T/C (dose: 200.0 mg/kg/injection, schedule: Q01DX001 (ip), vehicle: Klucel (hydroxypropylcellulose) (HPC), evaluated on day 30): 101, 194, 205, 216, 221, 228, 234, 239, 245, 247, 250, 252 (2×), 260, 265, 266, 267, 267 [2 of 3 alive], 270, 271, 272, 274, 275 (2×), 276, 279, 285 % of control (2×)
T/C (dose: 200.0 mg/kg/injection, schedule: Q01DX001 (ip), vehicle: Klucel (hydroxypropylcellulose) (HPC), evaluated on day 35): 267 and 279 % of control
survivor count (dose: 200.0 mg/kg/injection, schedule: Q01DX001 (ip), vehicle: Klucel (hydroxypropylcellulose) (HPC)): 3 of 3
T/C (dose: 200.0 mg/kg/injection, schedule: Q01DX001 (ip), vehicle: saline, evaluated on day 5): 117, 118, 260, 262, 274, 277, 383 (2×), 389, 553, 559, 586, 672 % of control
T/C (dose: 200.0 mg/kg/injection, schedule: Q01DX001 (ip), vehicle: saline, evaluated on day 30): 117, 140, 262 [5 of 6 alive], 283 % of control
T/C (dose: 200.0 mg/kg/injection, schedule: Q01DX001 (ip), vehicle: saline, evaluated on day 35): 323 [5 of 6 alive] and 343 % of control
T/C (dose: 200.0 mg/kg/injection, schedule: Q01DX001 (ip), vehicle: saline, evaluated on day 40): 396 % of control
T/C (dose: 200.0 mg/kg/injection, schedule: Q01DX001 (ip), vehicle: saline, evaluated on day 60): 117, 118, 120, 260, 262, 275, 333, 383, 383 [9 of 10 alive], 468, 471, 483, 484, 529, 530, 553, 586 % of control
survivor count (dose: 200.0 mg/kg/injection, schedule: Q01DX001 (ip), vehicle: saline): 10 of 10
T/C [2]: 98 and 106 % of control
survivor count [2]: 3 of 6, 2 of 3, 4 of 6, 5 of 6, 3 of 3, 6 of 6 (2×)
